PubChem BioAssay AID1159584, Peter MacCallum Cancer Centre | 2016
The deposit covers about 18,000 reagents; shown is a random part of them. Not stated in the record: the amount of reagent, the time to read-out.

Assay: 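Genes that CDH1-null MCF10A cells selectively depend on to survive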 (primary screen)
Cells: human MCF10A breast epithelial cells, parental and CDH1-null
Reagents: siRNA against human genes
Read-out: 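Cell viability by CellTiter-Glo ATP luminescence, each line scaled to the mean of mock wells across plates, then CDH1-null over parental ratio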
Scale: CDH1-null / parental viability ratio: higher = CDH1-null cells survive relatively better than parental; CDH1-null viability vs mock: higher = more viable CDH1-null cells; parental viability vs mock: higher = more viable parental cells

target | CDH1-null / parental viability ratio | CDH1-null viability vs mock (fraction of mock) | parental viability vs mock (fraction of mock)
NDUFA10 | 0.71 | 0.75 | 1.05
PABIR3 | 0.88 | 0.68 | 0.77
TBX2 | 1.03 | 1.15 | 1.12
BHLHE22 | 0.87 | 0.84 | 0.97
OR6F1 | 1.09 | 1.02 | 0.94
GPCPD1 | 0.74 | 0.7 | 0.94
CCR4 | 1.57 | 0.88 | 0.56
DPH2 | 0.96 | 0.5 | 0.52
SALL3 | 0.92 | 0.92 | 1
TOR2A | 0.71 | 0.44 | 0.62
FUNDC2 | 1.18 | 0.66 | 0.56
NLN | 1.15 | 0.78 | 0.68
DAAM2 | 0.94 | 0.62 | 0.66
ACSS2 | 1.06 | 0.92 | 0.87
IFNA7 | 1.11 | 0.6 | 0.54
CD226 | 0.62 | 0.39 | 0.63
CYTH2 | 0.82 | 0.76 | 0.93
PTBP3 | 0.97 | 1.08 | 1.11
COG6 | 0.75 | 0.48 | 0.64
SPATA20 | 1.05 | 0.61 | 0.58
UGT2B17 | 1.19 | 0.92 | 0.77
MYNN | 1.11 | 1.04 | 0.94
NXPE3 | 0.84 | 0.72 | 0.86
LINGO4 | 1.24 | 0.93 | 0.75
TAS2R19 | 0.68 | 0.45 | 0.66
MAPK6 | 1.12 | 0.94 | 0.84
CYP7B1 | 1.29 | 1.02 | 0.79
NGEF | 0.8 | 0.51 | 0.64
MRPL58 | 1.05 | 0.8 | 0.76
THRAP3 | 1.05 | 1 | 0.95
SIGLEC6 | 0.61 | 0.5 | 0.82
DTNBP1 | 1.28 | 0.82 | 0.64
ZMIZ2 | 0.8 | 0.44 | 0.55
LRRC40 | 1.41 | 0.62 | 0.44
MRPS28 | 1.27 | 1.12 | 0.88
ITGAM | 1.6 | 0.8 | 0.5
RDH11 | 1.03 | 0.76 | 0.74
NAA20 | 1.24 | 0.84 | 0.68
ZNF461 | 0.82 | 0.54 | 0.66
EDF1 | 0.95 | 0.89 | 0.94
GPR3 | 0.65 | 0.43 | 0.66
SLC29A3 | 0.82 | 0.6 | 0.73
EVC2 | 0.93 | 0.5 | 0.54
OPN1MW2 | 1.25 | 1.09 | 0.87
RBBP5 | 0.92 | 0.72 | 0.78
MYOF | 1.12 | 0.84 | 0.75
EFNB2 | 1.03 | 0.74 | 0.72
CBR4 | 0.89 | 0.66 | 0.74
GABBR2 | 0.7 | 0.57 | 0.82
EBP | 0.97 | 0.86 | 0.89
CHMP4C | 1.44 | 0.52 | 0.36
OR11H6 | 1.62 | 0.6 | 0.37
PECAM1 | 0.82 | 0.74 | 0.9
SNRPA | 1.19 | 1.11 | 0.93
IKZF3 | 1.01 | 0.88 | 0.87
SPRR2F | 0.71 | 0.63 | 0.89
ADGRG7 | 0.73 | 0.73 | 1
C2CD5 | 1.23 | 0.81 | 0.66
HSFX1 | 0.87 | 0.66 | 0.76
FAM86B1 | 0.86 | 0.5 | 0.58
PLS1 | 1.21 | 1.23 | 1.02
OR7D2 | 0.97 | 1.03 | 1.06
COL8A1 | 1.01 | 0.87 | 0.86
HSPA13 | 0.86 | 0.48 | 0.56
GMCL1 | 0.89 | 0.55 | 0.62
BCDIN3D | 0.86 | 0.92 | 1.07
DDX20 | 1.12 | 1.12 | 1
TRIL | 0.8 | 0.78 | 0.97

9 of these entries, set out differently:
{"target":"EBP","CDH1-null / parental viability ratio":0.97,"CDH1-null viability vs mock (fraction of mock)":0.86,"parental viability vs mock (fraction of mock)":0.89}
{"target":"CHMP4C","CDH1-null / parental viability ratio":1.44,"CDH1-null viability vs mock (fraction of mock)":0.52,"parental viability vs mock (fraction of mock)":0.36}
{"target":"OR11H6","CDH1-null / parental viability ratio":1.62,"CDH1-null viability vs mock (fraction of mock)":0.6,"parental viability vs mock (fraction of mock)":0.37}
{"target":"PECAM1","CDH1-null / parental viability ratio":0.82,"CDH1-null viability vs mock (fraction of mock)":0.74,"parental viability vs mock (fraction of mock)":0.9}
{"target":"SNRPA","CDH1-null / parental viability ratio":1.19,"CDH1-null viability vs mock (fraction of mock)":1.11,"parental viability vs mock (fraction of mock)":0.93}
{"target":"IKZF3","CDH1-null / parental viability ratio":1.01,"CDH1-null viability vs mock (fraction of mock)":0.88,"parental viability vs mock (fraction of mock)":0.87}
{"target":"SPRR2F","CDH1-null / parental viability ratio":0.71,"CDH1-null viability vs mock (fraction of mock)":0.63,"parental viability vs mock (fraction of mock)":0.89}
{"target":"ADGRG7","CDH1-null / parental viability ratio":0.73,"CDH1-null viability vs mock (fraction of mock)":0.73,"parental viability vs mock (fraction of mock)":1}
{"target":"C2CD5","CDH1-null / parental viability ratio":1.23,"CDH1-null viability vs mock (fraction of mock)":0.81,"parental viability vs mock (fraction of mock)":0.66}
